Data taken from patent US20210388086A1.

B1: A12 chimeric antibody (antibody, human IgG1, kappa, V domains shown)
VH: QVQLQQSGPELVKPGASVRMSCKAAGYTITSYLMHWVKQRPGQDLEWIGYINPYNDGTKYNEKFKDKATLTSDKSSSTAYMELSSLTSEDSAVYYCARSDVYYGVRFAYWGQGTLVTVSA
VL: DIVLTQSPAIMSASPGEKVTMTCSASSSVSYMHWYQQKSGTSPKRWIYDTSKLASGVPARFSGSGSGTSYSLTISSMEAEDAAIYYCQQWSSNPPTFGAGTKLELKR
B2: B22 chimeric antibody (antibody, human IgG1, kappa, V domains shown)
VH: QVQLQQPGAALVKPGASVKLSCKASGYTFTNYWIQWMKQRPGQGLEWIGEINPSNGRTDYNEKFKNRATLTVDNSSTTAYMQLSSLTSEDSAVYYCANYRPGYWGQGTSVTVSS
VL: DIVMTQSQKFMSTSVGDRVSVTCKASQNVGTNVAWFQQKPGQSPKPLIYLASYRYSGVPDRFTGSGSGTDFTLTISNVQSEDLAEYFCQQYNSYPLTFGGGTNLEIKR
B3: B30 chimeric antibody (antibody, human IgG1, kappa, V domains shown)
VH: B1 VH with I29F, M34I
VL: DIVLTQSPVIMSASPGEKVTMTCSASSSISYMYWYQQKPGSSPRLLIYDTSILASGVPVRFSGSGSGTSYSLTISRMEAEDAATYYCQQWSSYPFTFGSGTKLEIKR

Biological target: ROR2 extracellular protein
Assay: ELISA, plate coated with ROR2 extracellular protein

binding, binds:
B1
B2
B3

Biological target: human ROR2 extracellular end, His-tagged (human)
Assay: western blot, 5 µg/ml antibody

binding, binds:
B1
B2
B3

Substitutions are numbered along the chain they refer to. Results are given in words; binding and its absence hold for the method and conditions named. Binding calls can cover weak binding; strength is not graded here.
